This passage reports survivor count and T/C results from PubChem BioAssay AID330 (DTP/NCI, 2004).

The list shows only some results of the screen, not a fair sample: it gathers tests that were run many times, whatever their T/C, doses with no T/C, and many T/C values between a quarter and a half above the control. Further doses and runs are listed elsewhere. T/C gives the treated animals as a percentage of the vehicle group. Some doses have a count of surviving animals in place of a T/C: the source holds a T/C of zero for them, seemingly a mark for toxic or unscored doses. Some survivor counts are full or nearly so, which does not show that the dose was tolerated: the source hardly ever lists a survival T/C far under the control, and the zero likely stands for such cases as well. Counts of survivors are from the toxicity check (mostly the fifth day) where no day follows; animals may have died later. Schedules are NCI's codes, read here as Q, the interval in days (D) or hours (H), X, the number of doses. Some entries were tested several times; their values stand side by side, smallest first. For survival time, this PubChem deposit counts one and a half times the control or more as active, and values a quarter to a half above the control carry no call in these data; other NCI protocols may use other cut-offs. Signs of the kind (2×) give the number of equal values in this list. Some T/C values are followed by the survivors on the day toxicity was checked, most often the fifth; where none is given, no animal had died by that day.

The subject of the assay is P388 leukemia ip, CD2F1 mice, survival T/C. The experiment in a line: NCI In Vivo Anticancer Drug Screen. Data for tumor model P388 Leukemia (intraperitoneal) in CD2F1 (CDF1) mice. To be noted: T/C endpoint: median survival time, higher T/C = longer survival.
[1] abbreviates: dose: 25.0 mg/kg/injection, schedule: Q01DX009 (ip), vehicle: Klucel (hydroxypropylcellulose) (HPC).
The mark [2] stands for this setting: dose: 50.0 mg/kg/injection, schedule: Q01DX009 (ip), vehicle: Klucel (hydroxypropylcellulose) (HPC).
Where [3] appears, read: dose: 100.0 mg/kg/injection, schedule: Q01DX009 (ip), vehicle: Klucel (hydroxypropylcellulose) (HPC).
Setting [4] is: dose: 100.0 mg/kg/injection, schedule: Q01DX005 (ip), vehicle: saline with Tween-80.
The mark [5] stands for this setting: dose: 50.0 mg/kg/injection, schedule: Q01DX009 (ip), vehicle: water.
The mark [6] stands for this setting: dose: 400.0 mg/kg/injection, schedule: Q01DX009 (ip), vehicle: Klucel (hydroxypropylcellulose) (HPC).
The mark [7] stands for this setting: dose: 200.0 mg/kg/injection, schedule: Q01DX009 (ip), vehicle: Klucel (hydroxypropylcellulose) (HPC).
Where [8] appears, read: dose: 50.0 mg/kg/injection, schedule: Q01DX009 (ip), vehicle: saline with Tween-80.
The mark [9] stands for this setting: dose: 200.0 mg/kg/injection, schedule: Q01DX009 (ip), vehicle: saline.
Setting [10] is: dose: 100.0 mg/kg/injection, schedule: Q01DX009 (ip), vehicle: saline with Tween-80.
Where [11] appears, read: dose: 200.0 mg/kg/injection, schedule: Q01DX009 (ip), vehicle: saline with Tween-80.
[12] abbreviates: dose: 200.0 mg/kg/injection, schedule: Q01DX009 (ip), vehicle: water.

In the case of `O=C(CCl)NNC(=O)CCl`, the survivor count (dose: 6.25 mg/kg/injection, schedule: Q01DX009 (ip), vehicle: Klucel (hydroxypropylcellulose) (HPC)) is reported as 0 of 6; the survivor count under setting [1] was 0 of 6; the survivor count under setting [2] was 0 of 6; the survivor count under setting [3] is listed as 0 of 6. The T/C is 127 % of control (dose: 12.5 mg/kg/injection, schedule: Q01DX009 (ip), vehicle: Klucel (hydroxypropylcellulose) (HPC)) and 127 % of control [5 of 6 alive] under setting [1].

Regarding `CCCCC(S)CS` (stereo unspecified), the survivor count was 2 of 6 under setting [4] and 1 of 6 (dose: 200.0 mg/kg/injection, schedule: Q01DX005 (ip), vehicle: saline with Tween-80).

For `CCB1OCC(C2OC(O)C3OB(CC)OC32)O1` (stereo unspecified), the survivor count under setting [4] is 6 of 6.

With `COC(=O)CC(c1ccccc1)C1(c2ccc3c(c2)OCO3)SCCCS1` (stereo unspecified), the survivor count (dose: 400.0 mg/kg/injection, schedule: Q01DX001 (ip), vehicle: saline with Tween-80) is 6 of 6.

As to `O=C1COC(c2ccccc2O)=NN1CCCN1CCCC1`, the survivor count (dose: 200.0 mg/kg/injection, schedule: Q01DX001 (ip), vehicle: saline) is on record as 0 of 6.

For `O=C1N(CCN2CCC3(CC2)OCCO3)CCN1c1cc(Cl)cc(Cl)c1`, under setting [5], the T/C was 113, 116 (2×), 130 % of control.

Consider `Fc1ccc(NC(=S)SCc2ccc3c(c2)OCO3)cc1F`, for which the survivor count under setting [6] is listed as 2 of 6.

As to `ClC1=NOC(c2ccccc2)C1` (stereo unspecified), the survivor count (dose: 400.0 mg/kg/injection, schedule: Q01DX005 (ip), vehicle: distilled water + Tween-80) was 0 of 6.

Regarding `Cc1cc2nc(C)nn2c(C)n1`, the survivor count (dose: 200.0 mg/kg/injection, schedule: Q04DX003 (ip), vehicle: saline) was 6 of 6.

On to `CCOP(=O)(O)CC(=O)NC(CC(=O)O)C(=O)O` (stereo unspecified), for which, under setting [7], the T/C is 125 % of control.

Turning to `O=C(N/N=C/c1cccc(O)c1O)N/N=C/c1cccc(O)c1O`, the T/C (dose: 100.0 mg/kg/injection, schedule: Q01DX009 (ip), vehicle: distilled water + Tween-80) was 136 % of control and the T/C (dose: 200.0 mg/kg/injection, schedule: Q01DX009 (ip), vehicle: distilled water + Tween-80) is 134 % of control [5 of 6 alive]. The survivor count (dose: 400.0 mg/kg/injection, schedule: Q01DX009 (ip), vehicle: distilled water + Tween-80) was 3 of 6 and 5 of 6.

`c1cc(OCC2CO2)cc(OCC2CO2)c1` (stereo unspecified): the survivor count (dose: 200.0 mg/kg/injection, schedule: Q01DX009 (ip), vehicle: DMSO) was 6 of 6.

As for `COc1ccc(Cc2nncc3ccccc23)cc1OC`, the survivor count under setting [8] is 6 of 6.

As for `N#CSC1=C(SC#N)C1(F)F`, the survivor count (dose: 100.0 mg/kg/injection, schedule: Q04DX002 (ip), vehicle: Klucel (hydroxypropylcellulose) (HPC)) was 0 of 6; the survivor count (dose: 200.0 mg/kg/injection, schedule: Q04DX002 (ip), vehicle: Klucel (hydroxypropylcellulose) (HPC)) is given as 1 of 6; the survivor count (dose: 400.0 mg/kg/injection, schedule: Q04DX002 (ip), vehicle: Klucel (hydroxypropylcellulose) (HPC)) is 0 of 6.

Consider `N#Cc1sc(=S)n(-c2ccccc2)c1N`, for which the survivor count is reported as 6 of 6 (dose: 100.0 mg/kg/injection, schedule: Q01DX009 (ip), vehicle: saline) and 4 of 6 under setting [9].

`C/C(=N\OCC(O)CNCCSCc1ccccc1)c1ccccc1Cl` (stereo unspecified): the survivor count (dose: 60.0 mg/kg/injection, schedule: Q01DX005 (ip), vehicle: Klucel (hydroxypropylcellulose) (HPC)) is listed as 3 of 6 and the survivor count (dose: 240.0 mg/kg/injection, schedule: Q01DX005 (ip), vehicle: Klucel (hydroxypropylcellulose) (HPC)) is 2 of 6.

For the compound `CCCC(NC(N)=O)C(CCC)NC(N)=O` (stereo unspecified), the survivor count is, setting by setting: under setting [10], 4 of 6; under setting [11], 0 of 6.

On to `CC(N)C(=O)OCN1C(=O)C2C3C=CC(C2C1=O)C1C2C(=O)N(COC(=O)C(C)N)C(=O)C2C31` (stereo unspecified), for which the T/C under setting [5] is 127 % of control. The survivor count under setting [12] is 1 of 6.

In the case of `Cc1ccc(C)c(S(=O)(=O)Nc2c([N+](=O)[O-])cc([N+](=O)[O-])c3ccccc23)c1`, the survivor count (dose: 200.0 mg/kg/injection, schedule: Q04DX002 (ip), vehicle: saline with Tween-80) was 1 of 6.

As for `O=c1oc2ccccc2c(O)c1C(c1ccc2c(c1)OCO2)N1CCCC1` (stereo unspecified), the survivor count was 2 of 6 (dose: 120.0 mg/kg/injection, schedule: Q01DX005 (ip), vehicle: saline with Tween-80) and 0 of 6 (dose: 240.0 mg/kg/injection, schedule: Q01DX005 (ip), vehicle: saline with Tween-80).

With `CCCCCCCCCCCCCCCCCC[N+]1([O-])CCOCC1`, the survivor count under setting [9] is recorded as 0 of 6.

For the compound `ClC1CC[N-]CC1.ClC1CC[N-]CC1.[Cl][Pt+2]([Cl])([Cl])[Cl]`, the T/C is, setting by setting: (dose: 3.12 mg/kg/injection, schedule: Q01DX009 (ip), vehicle: Klucel (hydroxypropylcellulose) (HPC)) 140 % of control; (dose: 6.25 mg/kg/injection, schedule: Q01DX009 (ip), vehicle: saline) 136 % of control [5 of 6 alive].

`Nc1ccc2nc3ccc(N)cc3[n+](-c3ccccc3)c2c1`: the T/C (dose: 6.0 mg/kg/injection, schedule: Q01DX009 (ip), vehicle: saline with Tween-80) was 136 % of control and the T/C (dose: 12.5 mg/kg/injection, schedule: Q04DX003 (ip), vehicle: saline with Tween-80) is 136 % of control. For the same compound, the survivor count reads like this: (dose: 25.0 mg/kg/injection, schedule: Q04DX003 (ip), vehicle: saline with Tween-80) 5 of 6; (dose: 27.0 mg/kg/injection, schedule: Q01DX009 (ip), vehicle: saline with Tween-80) 0 of 6; (dose: 40.0 mg/kg/injection, schedule: Q01DX009 (ip), vehicle: saline with Tween-80) 2 of 6; (dose: 50.0 mg/kg/injection, schedule: Q04DX003 (ip), vehicle: saline with Tween-80) 0 of 6; (dose: 75.0 mg/kg/injection, schedule: Q04DX003 (ip), vehicle: saline with Tween-80) 0 of 6; (dose: 100.0 mg/kg/injection, schedule: Q04DX003 (ip), vehicle: saline with Tween-80) 0 of 6.

For `O=[N+]([O-])c1ccc2c(c1)Cc1cc(N(CCCl)CCCl)ccc1-2`, the survivor count is, setting by setting: under setting [2], 6 of 6; under setting [3], 6 of 6; under setting [7], 6 of 6; under setting [6], 6 of 6.

Consider `CC(=O)NCCSSCCCCSSCCNC(C)=O`, for which the survivor count (dose: 200.0 mg/kg/injection, schedule: Q01DX005 (ip), vehicle: Klucel (hydroxypropylcellulose) (HPC)) is listed as 5 of 5.

As to `CCOC(=O)C[N+](C)(C)C(C#N)C(C)c1ccccc1` (stereo unspecified), the survivor count (dose: 240.0 mg/kg/injection, schedule: Q01DX005 (ip), vehicle: saline) is given as 0 of 6.

As for `O=C1c2cccc3c2C2(O)c4c1cccc4C(=O)c1cccc(c12)C3=O`, the survivor count under setting [11] is 2 of 6.

For the compound `CCCCOc1ccc(Nc2c3ccccc3nc3ccccc23)cc1`, under setting [8], the T/C was 136 % of control. Further, the survivor count under setting [10] is recorded as 0 of 6.

With `COc1cccc2c1C(=O)c1c(O)c3c(c(O)c1C2=O)C[C@@](O)(C(C)=O)C[C@@H]3OC1CC(N(Cc2ccccc2)Cc2ccccc2)C(O)C(C)O1` (stereo partly specified), the T/C was 140 % of control (dose: 3.13 mg/kg/injection, schedule: Q01DX009 (ip), vehicle: water); 140 % of control (dose: 6.25 mg/kg/injection, schedule: Q01DX009 (ip), vehicle: water); 140 % of control (dose: 7.78 mg/kg/injection, schedule: Q04DX003 (ip), vehicle: water); 140 % of control (dose: 36.0 mg/kg/injection, schedule: Q04DX003 (ip), vehicle: water). In addition, the survivor count is 3 of 3 (dose: 100.0 mg/kg/injection, schedule: Q01DX009 (ip), vehicle: water) and 3 of 3 under setting [12].
